Measurements taken from article PMC11404569.

Legend:
Experiment in all cases: EMSA
[1] = biological target: T1, ECT2-ΔSH del376-386 (Arabidopsis thaliana) (UniProt Q9LJE5); details: complex visible, no doublet, up to 1000 nM; m6A at position 25; thiol-protected 3' bases (*G*U); EMSA: 10 nM FAM-RNA; binding buffer 10 mM HEPES pH 8.0, 50 mM KCl, 1 mM EDTA, 0.05% Triton X-100, 5% glycerol, 10 µg/mL salmon DNA, 1 mM DTT, 40 U/mL RNasin; recombinant protein; residues 1-667; protein details: N-terminal His-SUMO; label: 5' FAM
T1 sequence (looked up): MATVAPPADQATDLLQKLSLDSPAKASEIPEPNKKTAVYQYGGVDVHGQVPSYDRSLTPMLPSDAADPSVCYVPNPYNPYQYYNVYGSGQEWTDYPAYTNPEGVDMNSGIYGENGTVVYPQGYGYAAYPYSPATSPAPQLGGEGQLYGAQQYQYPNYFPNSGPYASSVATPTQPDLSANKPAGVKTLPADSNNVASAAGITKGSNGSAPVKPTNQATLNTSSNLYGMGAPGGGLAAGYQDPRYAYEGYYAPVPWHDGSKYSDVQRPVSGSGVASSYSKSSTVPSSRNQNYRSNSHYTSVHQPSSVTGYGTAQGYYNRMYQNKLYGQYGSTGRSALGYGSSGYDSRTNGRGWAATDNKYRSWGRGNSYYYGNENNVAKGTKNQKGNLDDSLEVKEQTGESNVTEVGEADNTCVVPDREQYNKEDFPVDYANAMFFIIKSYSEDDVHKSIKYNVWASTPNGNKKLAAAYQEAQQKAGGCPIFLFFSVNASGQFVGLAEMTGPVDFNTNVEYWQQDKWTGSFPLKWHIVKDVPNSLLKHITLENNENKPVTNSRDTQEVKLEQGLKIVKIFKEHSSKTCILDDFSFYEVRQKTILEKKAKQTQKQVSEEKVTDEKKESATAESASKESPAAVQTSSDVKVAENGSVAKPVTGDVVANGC

[2] = biological target: T2, ECT2-Δα4 del591-627 (Arabidopsis thaliana) (UniProt Q9LJE5); details: no visible stable complex, up to 1000 nM; m6A at position 25; thiol-protected 3' bases (*G*U); EMSA: 10 nM FAM-RNA; binding buffer 10 mM HEPES pH 8.0, 50 mM KCl, 1 mM EDTA, 0.05% Triton X-100, 5% glycerol, 10 µg/mL salmon DNA, 1 mM DTT, 40 U/mL RNasin; recombinant protein; residues 1-667; protein details: N-terminal His-SUMO; label: 5' FAM
T2 sequence (looked up): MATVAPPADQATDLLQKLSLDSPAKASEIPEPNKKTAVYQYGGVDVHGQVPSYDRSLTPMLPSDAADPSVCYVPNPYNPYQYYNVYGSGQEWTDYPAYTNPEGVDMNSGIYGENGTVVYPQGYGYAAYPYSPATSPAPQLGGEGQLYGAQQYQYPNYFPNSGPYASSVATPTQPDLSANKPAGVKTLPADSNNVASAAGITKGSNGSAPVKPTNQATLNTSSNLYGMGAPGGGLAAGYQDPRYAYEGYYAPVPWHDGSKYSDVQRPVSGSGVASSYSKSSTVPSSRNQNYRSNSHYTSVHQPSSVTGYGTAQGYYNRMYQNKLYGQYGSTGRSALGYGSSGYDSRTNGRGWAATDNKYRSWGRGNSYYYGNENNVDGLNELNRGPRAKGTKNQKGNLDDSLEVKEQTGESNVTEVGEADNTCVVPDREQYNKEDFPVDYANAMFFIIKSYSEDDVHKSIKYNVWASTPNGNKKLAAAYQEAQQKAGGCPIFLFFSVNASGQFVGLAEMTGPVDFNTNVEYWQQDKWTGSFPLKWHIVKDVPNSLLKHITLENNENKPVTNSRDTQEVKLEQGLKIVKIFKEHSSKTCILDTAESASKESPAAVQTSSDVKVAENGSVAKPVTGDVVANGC

[3] = biological target: T3, ECT2-303 YTH mut W464A,W521A,W526A (Arabidopsis thaliana) (UniProt Q9LJE5); details: up to 500 nM; thiol-protected 3' bases (*G*U); EMSA: 10 nM FAM-RNA; binding buffer 10 mM HEPES pH 8.0, 50 mM KCl, 1 mM EDTA, 0.05% Triton X-100, 5% glycerol, 10 µg/mL salmon DNA, 1 mM DTT, 40 U/mL RNasin; recombinant protein; residues 303-667; protein details: N-terminal His-SUMO; label: 5' FAM
T3 sequence (looked up): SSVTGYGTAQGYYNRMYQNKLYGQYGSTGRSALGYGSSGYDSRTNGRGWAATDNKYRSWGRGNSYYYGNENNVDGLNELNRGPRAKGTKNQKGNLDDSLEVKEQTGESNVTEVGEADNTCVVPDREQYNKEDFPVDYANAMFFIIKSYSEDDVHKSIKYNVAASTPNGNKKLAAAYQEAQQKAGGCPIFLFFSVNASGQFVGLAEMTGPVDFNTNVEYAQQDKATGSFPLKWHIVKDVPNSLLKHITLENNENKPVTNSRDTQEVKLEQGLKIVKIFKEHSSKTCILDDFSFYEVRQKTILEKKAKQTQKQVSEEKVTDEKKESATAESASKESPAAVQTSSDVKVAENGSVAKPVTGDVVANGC

[4] = biological target: T4, ECT2-108 YTH mut W464A,W521A,W526A (Arabidopsis thaliana) (UniProt Q9LJE5); details: up to 500 nM; thiol-protected 3' bases (*G*U); EMSA: 10 nM FAM-RNA; binding buffer 10 mM HEPES pH 8.0, 50 mM KCl, 1 mM EDTA, 0.05% Triton X-100, 5% glycerol, 10 µg/mL salmon DNA, 1 mM DTT, 40 U/mL RNasin; recombinant protein; residues 108-667; protein details: N-terminal His-SUMO; label: 5' FAM
T4 sequence (looked up): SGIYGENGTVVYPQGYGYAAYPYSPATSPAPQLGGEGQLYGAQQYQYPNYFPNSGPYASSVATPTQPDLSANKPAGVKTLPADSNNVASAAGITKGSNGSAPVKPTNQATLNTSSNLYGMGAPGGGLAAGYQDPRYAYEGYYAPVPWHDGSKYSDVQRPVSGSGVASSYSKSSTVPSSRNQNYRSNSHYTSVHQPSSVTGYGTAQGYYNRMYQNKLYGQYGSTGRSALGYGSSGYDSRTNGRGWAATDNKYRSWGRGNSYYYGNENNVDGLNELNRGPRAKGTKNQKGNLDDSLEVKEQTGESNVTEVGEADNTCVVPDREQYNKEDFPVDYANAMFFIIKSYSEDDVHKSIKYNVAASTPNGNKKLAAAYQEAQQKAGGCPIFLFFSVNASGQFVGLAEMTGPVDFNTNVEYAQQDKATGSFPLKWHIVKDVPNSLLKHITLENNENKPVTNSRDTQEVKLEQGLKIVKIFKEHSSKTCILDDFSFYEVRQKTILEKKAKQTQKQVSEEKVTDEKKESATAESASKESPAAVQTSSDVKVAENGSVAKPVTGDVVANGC

Sequence | binding result [1] | binding result [2] | binding result [3] | binding result [4]
AUGGGCCGUUCAUCUGCUAAAAGGACUGCUUUUGGGGCUUGU [Probe I m6A] | binds more weakly | binds more weakly |  | 
AUGGGCCGUUCAUCUGCUAAAAGGACUGCUUUUGGGGCUUGU [Probe I (A)] |  |  | no binding | no binding

For some of these results: No signal at the amounts used counts as a negative. For some of these results: At least one verdict was read from the data and is not stated in words by the source. Where a protein sequence is shown, tags need not be part of it. For some of these results: Weaker means in comparison with the reference protein, sequence or condition of that experiment.
